Assay results as given in PMC11067302.

Molecular target: T1, Flag-IL-3Rα (UniProt P26951)
T1 sequence: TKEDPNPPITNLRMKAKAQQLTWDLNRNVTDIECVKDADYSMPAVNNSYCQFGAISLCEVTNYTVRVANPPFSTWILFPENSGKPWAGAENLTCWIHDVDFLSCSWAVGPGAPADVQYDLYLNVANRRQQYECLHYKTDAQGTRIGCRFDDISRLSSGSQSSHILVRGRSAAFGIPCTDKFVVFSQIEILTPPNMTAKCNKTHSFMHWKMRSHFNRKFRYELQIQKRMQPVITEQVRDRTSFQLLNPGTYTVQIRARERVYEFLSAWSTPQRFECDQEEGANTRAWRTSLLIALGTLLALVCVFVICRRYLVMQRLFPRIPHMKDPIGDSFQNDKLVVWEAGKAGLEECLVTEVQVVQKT
Test: co-IP; 293T cells co-transfected with HA-RNF128 (or HA-tagged truncated forms) and Flag-tagged receptor; RIPA lysate; immunoprecipitation with anti-Flag antibody on protein A agarose, 4 °C; immunoblot

binding: binds
Substance: N-terminal domain of RNF128 (HA-tagged truncated form of RNF128) (domain or fragment)

No constants are given. Whether binding was seen depends on the method and setting. In cells and extracts the contact can be indirect. Binding can be weak; no strength is given. Tags and fused reporters may be left off the sequences shown.
